Reference: PubChem BioAssay AID1159601 (NIAID, 2016)
Screen: 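Knock-down of 126 canonical TLR pathway genes, testing the TNF response to a TLR2 ligand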 (primary screen). System: human THP-1 reporter cells differentiated with PMA into macrophage-like cells. Knock-down reagent: single siRNA against human genes. Time to read-out: ligand added 4 hours before read-out; cells assayed 48 to 72 hours after siRNA transfection. Treatment: Pam3CSK4 (TLR2 ligand) for 4 hours; dose not given. Detection: 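TNF promoter dual-luciferase ratio measured 4 h after Pam3CSK4, converted to robust z-scores against negative controls and averaged across replicates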. Reading the numbers: TNF reporter z-score: higher = stronger TNF promoter reporter activity. Rule for the call: 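Grade increases with absolute z-score, cut points 1, 1.5, 2 and 2.5, both signs; rows called active have z near or beyond ±1.5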. Calls: active = clear change (up or down); inactive = little change.
This is one part, drawn at random, of 756 reagents. 143 of them (19%) were called active. 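Calls include both lowered and raised reporter signal; each row is a single siRNA, not a gene summary; Pam3CSK4 dose not stated.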 Entries without a mark were called inactive. The numbers tell different reagents against one gene apart. The record does not give: the amount of reagent.

With knock-down of PIK3R1 #1, the record shows TNF reporter z-score, replicate mean -0.0859.
With knock-down of PIK3R1 #2, the screen gave TNF reporter z-score, replicate mean -0.933.
Depletion of PIK3R1 #3 came out at: TNF reporter z-score, replicate mean 0.0297.
Knock-down of PIK3R1 #4 came out at: TNF reporter z-score, replicate mean 0.307.
PIK3R1 #5 scored TNF reporter z-score, replicate mean -2.21 (active).
After knock-down of PIK3R1 #6, the record shows TNF reporter z-score, replicate mean 0.0373.
Knock-down of ELF4 #1 gave: TNF reporter z-score, replicate mean -2.46 (active).
Depletion of ELF4 #2 came out at: TNF reporter z-score, replicate mean -2.24 (active).
After knock-down of ELF4 #3, the record shows TNF reporter z-score, replicate mean -0.271.
For ELF4 #4 the deposit lists TNF reporter z-score, replicate mean -1.22.
ELF4 #5 scored TNF reporter z-score, replicate mean -1.45.
Knock-down of ELF4 #6 gave: TNF reporter z-score, replicate mean -0.834.
Silencing of ITGAM #1 came out at: TNF reporter z-score, replicate mean 1.4.
ITGAM #2 showed TNF reporter z-score, replicate mean -1.47.
For ITGAM #3, the entry reads TNF reporter z-score, replicate mean -0.975.
Against ITGAM #4, the entry reads TNF reporter z-score, replicate mean -0.446.
Depletion of ITGAM #5 came out at: TNF reporter z-score, replicate mean -0.545.
Against ITGAM #6, the entry reads TNF reporter z-score, replicate mean 0.369.
RAC1 #1 showed TNF reporter z-score, replicate mean -0.334.
RAC1 #2 scored TNF reporter z-score, replicate mean 0.58.
For RAC1 #3 the deposit lists TNF reporter z-score, replicate mean 0.0679.
Silencing of RAC1 #4 resulted in: TNF reporter z-score, replicate mean -1.11.
Against RAC1 #5, the values are TNF reporter z-score, replicate mean 1.33.
Against RAC1 #6, the entry reads TNF reporter z-score, replicate mean -0.925.
For PIK3CB #1, the values are TNF reporter z-score, replicate mean -0.121.
PIK3CB #2 scored TNF reporter z-score, replicate mean -1.56 (active).
For PIK3CB #3, the entry reads TNF reporter z-score, replicate mean -0.921.
Knock-down of PIK3CB #4 came out at: TNF reporter z-score, replicate mean 0.346.
Depletion of PIK3CB #5 came out at: TNF reporter z-score, replicate mean 0.763.
Against PIK3CB #6, the values are TNF reporter z-score, replicate mean -0.0678.
Against IFNAR1 #1 the deposit lists TNF reporter z-score, replicate mean -0.715.
IFNAR1 #2 gave TNF reporter z-score, replicate mean -0.643.
IFNAR1 #3 gave TNF reporter z-score, replicate mean 0.69.
Against IFNAR1 #4 the deposit lists TNF reporter z-score, replicate mean -0.486.
Knock-down of IFNAR1 #5 resulted in: TNF reporter z-score, replicate mean -1.29.
IFNAR1 #6 showed TNF reporter z-score, replicate mean -0.0872.

Records listed so far whose target name starts with E or e:
ELF4 #1 — TNF reporter z-score, replicate mean: -2.46 (active)
ELF4 #2 — TNF reporter z-score, replicate mean: -2.24 (active)
ELF4 #3 — TNF reporter z-score, replicate mean: -0.271
ELF4 #4 — TNF reporter z-score, replicate mean: -1.22
ELF4 #5 — TNF reporter z-score, replicate mean: -1.45
ELF4 #6 — TNF reporter z-score, replicate mean: -0.834

The results go on.
For TBK1 #1 the deposit lists TNF reporter z-score, replicate mean -1.41.
Silencing of TBK1 #2 came out at: TNF reporter z-score, replicate mean -0.533.
TBK1 #3 showed TNF reporter z-score, replicate mean 1.4.
TBK1 #4 gave TNF reporter z-score, replicate mean 0.613.
Depletion of TBK1 #5 gave: TNF reporter z-score, replicate mean -0.621.
With knock-down of TBK1 #6, the record shows TNF reporter z-score, replicate mean -1.03.
For IL1B #1, the entry reads TNF reporter z-score, replicate mean -0.289.
Against IL1B #2, the entry reads TNF reporter z-score, replicate mean -0.432.
Silencing of IL1B #3 resulted in: TNF reporter z-score, replicate mean -1.3.
Against IL1B #4, the values are TNF reporter z-score, replicate mean -0.537.
With knock-down of IL1B #5, the record shows TNF reporter z-score, replicate mean -1.57 (active).
Against IL1B #6, the values are TNF reporter z-score, replicate mean -0.325.
NFKBIB #1 gave TNF reporter z-score, replicate mean -0.805.
Silencing of NFKBIB #2 came out at: TNF reporter z-score, replicate mean -0.304.
For NFKBIB #3 the deposit lists TNF reporter z-score, replicate mean -0.202.
Against NFKBIB #4, the entry reads TNF reporter z-score, replicate mean -0.749.
NFKBIB #5 scored TNF reporter z-score, replicate mean 0.605.
Knock-down of NFKBIB #6 came out at: TNF reporter z-score, replicate mean 0.0809.
For EGR1 #1 the deposit lists TNF reporter z-score, replicate mean -2.72 (active).
EGR1 #2 scored TNF reporter z-score, replicate mean -2.35 (active).
With knock-down of EGR1 #3, the record shows TNF reporter z-score, replicate mean -2.18 (active).
EGR1 #4 gave TNF reporter z-score, replicate mean -1.23.
After knock-down of EGR1 #5, the record shows TNF reporter z-score, replicate mean -0.505.
Knock-down of EGR1 #6 resulted in: TNF reporter z-score, replicate mean 0.719.
